Record: PubChem BioAssay AID1259254 (NCATS, 2017)

Test: 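Finding genes that stop cells copying their DNA twice in one cycle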 (primary screen)
System: human HCT116 colorectal cancer cells
Reagents: single siRNA against human genes
Time to read-out: 3 days
Read-out: 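Imaged Hoechst DNA stain sorts each cell into a cycle phase by DNA amount; per plate, G2 fraction set to 0% for non-targeting and 100% for GMNN siRNA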
Scale: G2 robust z-score: higher = more G2 cells, more excess DNA replication
Call rule: 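Active siRNAs have a G2 robust z of 5 or more median absolute deviations over the median, which in these data means about 38% or higher of GMNN control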
The deposit covers about 59,000 reagents; this is an unselected part. About 1,550 of all reagents (2.6%) were called active. 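G2 share is only a proxy for re-replication; each gene was hit by three separate siRNAs, and active genes were retested.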 Unmarked entries are inactive. Reagents against one gene are numbered here. Further read-outs or replicates are left out here. Reagent sequences are not shown. Not stated in the record: the amount of reagent.

With ZNF93 #1, how do the results read?
G2 robust z-score: -1.11

With ZNF93 #2, what does the deposit list?
G2 robust z-score: -0.966

With ZNF93 #3, how do the results read?
G2 robust z-score: 3.37

What is on record for SLC25A48 #1?
G2 robust z-score: 0.402

For SLC25A48 #2, what does the deposit list?
G2 robust z-score: -0.386

For SLC25A48 #3, what was measured?
G2 robust z-score: -0.383

What did the screen give for CCDC68 #1?
G2 robust z-score: -0.757

What did the screen give for CCDC68 #2?
G2 robust z-score: -0.955

With CCDC68 #3, how do the results read?
G2 robust z-score: -0.716

For HTR1F #1, what was measured?
G2 robust z-score: -0.379

For HTR1F #2, how do the results read?
G2 robust z-score: 0.425

What did the screen give for HTR1F #3?
G2 robust z-score: -1.02

Which result is listed for GCSH #1?
G2 robust z-score: 0.182

With GCSH #2, what was measured?
G2 robust z-score: 2.68

With GCSH #3, how do the results read?
G2 robust z-score: 3.37

With ZC3H7A #1, what does the deposit list?
G2 robust z-score: -0.533

How did the screen score ZC3H7A #2?
G2 robust z-score: -0.847

For ZC3H7A #3, what does the deposit list?
G2 robust z-score: -0.286

With DNMT3B #1, how do the results read?
G2 robust z-score: -0.578

How did the screen score DNMT3B #2?
G2 robust z-score: 0.204

For DNMT3B #3, how do the results read?
G2 robust z-score: -0.52

Which result is listed for ITGA5 #1?
G2 robust z-score: 7.27 (active)

For ITGA5 #2, how do the results read?
G2 robust z-score: 0.0326

What is on record for ITGA5 #3?
G2 robust z-score: -0.182

How did the screen score SETD9 #1?
G2 robust z-score: 0.652

What did the screen give for SETD9 #2?
G2 robust z-score: -0.583

How did the screen score SETD9 #3?
G2 robust z-score: -0.874

For MAST1 #1, what does the deposit list?
G2 robust z-score: -0.853

For MAST1 #2, what was measured?
G2 robust z-score: 1.83

What did the screen give for MAST1 #3?
G2 robust z-score: -0.153

Single entries from the list.
For “G2 robust z-score”, HTR1F #1 is entered as -0.379
For “G2 robust z-score”, DNMT3B #2 reads 0.204
Value of SETD9 #1 under “G2 robust z-score”: 0.652
ZC3H7A #1, G2 robust z-score = -0.533
